# Reference: US20160185837A1, “GIP AND GLP-1 RECEPTOR DUAL-AGONISTS FOR THE TREATMENT OF DIABETES” (Medimmune Limited, priority 2013, published 2016)
# No constants are given. Whether binding was seen depends on the method and setting. A result given as binding can be weak or reduced; the word gives no strength.
# Target: GLP-1r (Homo sapiens (Human))
# Assay: phage display selection
row,binding,Binder
1,binds,HGEGTFTSDVSSYMESQLVREFIAWLVKG [LVR peptide]
2,binds,HGEGTFTSDVSSYMEAQSIREFIAWLVKGP [SIR peptide]
3,binds,HGEGTFTSDVSSYMERQAIDEFIAWLLAG [AID peptide]

# Target: GIPr (Homo sapiens (Human))
# Assay: phage display selection
row,binding,Binder
1,binds,HGEGTFTSDVSSYMESQLVREFIAWLVKG [LVR peptide]
2,binds,HGEGTFTSDVSSYMEAQSIREFIAWLVKGP [SIR peptide]
3,binds,HGEGTFTSDVSSYMERQAIDEFIAWLLAG [AID peptide]
